From US20240190950A1, “METHOD OF TREATING DISEASES USING GREMLIN1 ANTAGONISTS” (SHANGHAI JIAO TONG UNIVERSITY, priority 2021, published 2024)
Results are given in words; binding and its absence hold for the method and conditions named. Some binding calls cover weakened binding; strength is not graded here.

Sequences of proteins named here, by UniProt entry; tags and fusion partners are left off. A change or cut given only in a name is not applied to a line headed by its entry.
UniProt O60565: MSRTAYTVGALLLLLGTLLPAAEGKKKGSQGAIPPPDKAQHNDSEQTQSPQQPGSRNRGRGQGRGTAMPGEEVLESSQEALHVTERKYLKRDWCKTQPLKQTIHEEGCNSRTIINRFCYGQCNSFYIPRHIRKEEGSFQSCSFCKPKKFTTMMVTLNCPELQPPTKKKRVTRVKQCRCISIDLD
UniProt P11362: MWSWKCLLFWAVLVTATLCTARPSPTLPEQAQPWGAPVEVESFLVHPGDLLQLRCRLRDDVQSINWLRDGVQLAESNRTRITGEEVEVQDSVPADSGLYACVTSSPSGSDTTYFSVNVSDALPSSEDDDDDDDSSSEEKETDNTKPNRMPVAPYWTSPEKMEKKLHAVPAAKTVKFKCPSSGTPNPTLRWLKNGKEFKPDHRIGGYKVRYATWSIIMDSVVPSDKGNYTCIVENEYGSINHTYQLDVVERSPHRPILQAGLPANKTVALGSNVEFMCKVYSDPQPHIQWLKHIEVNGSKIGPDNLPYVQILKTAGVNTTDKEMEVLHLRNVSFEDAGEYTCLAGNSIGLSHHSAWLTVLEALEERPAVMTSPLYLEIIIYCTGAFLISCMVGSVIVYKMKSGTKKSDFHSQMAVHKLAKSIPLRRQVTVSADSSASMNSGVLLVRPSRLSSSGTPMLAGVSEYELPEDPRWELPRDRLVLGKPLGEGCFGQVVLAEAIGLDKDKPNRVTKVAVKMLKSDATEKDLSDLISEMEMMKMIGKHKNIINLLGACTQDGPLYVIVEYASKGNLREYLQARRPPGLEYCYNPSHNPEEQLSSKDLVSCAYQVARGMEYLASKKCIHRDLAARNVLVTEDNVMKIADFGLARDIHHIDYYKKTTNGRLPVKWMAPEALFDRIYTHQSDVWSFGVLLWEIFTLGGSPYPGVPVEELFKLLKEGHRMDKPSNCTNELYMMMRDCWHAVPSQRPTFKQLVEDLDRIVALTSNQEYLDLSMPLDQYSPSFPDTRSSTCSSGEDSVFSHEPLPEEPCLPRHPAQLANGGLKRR

Key:
[1] = target: Gremlin1 (human gremlin 1, hGREM1) (human) (UniProt O60565); test: pull-down with purified proteins
[2] = target: Gremlin1 (human gremlin 1, hGREM1) (human) (UniProt O60565); test: competitive ELISA: soluble FGFR1-Fc in rising concentration with Gremlin1-biotin, competing with the binding of Gremlin1 to FGFR1
[3] = target: Gremlin1 (human gremlin 1, hGREM1) (human) (UniProt O60565); test: pull-down with purified Gremlin1 and soluble FGFR1 protein
[4] = target: Gremlin1 (human gremlin 1, hGREM1) (human) (UniProt O60565); test: competitive ELISA; soluble FGFR1 as competitor of the Gremlin1-FGFR1 binding
[5] = target: Gremlin1 (human gremlin 1, hGREM1) (human) (UniProt O60565); test: ForteBio, Gremlin1-biotin on streptavidin sensor

Row | binding [1] | binding [2] | binding [3] | binding [4] | binding [5] | Substance
1 | binds | binds | binds | binds | – | soluble FGFR1 (from UniProt P11362 22-376) (receptor)
2 | – | – | – | – | binds | FGFR1 (protein used in the ForteBio and ELISA assays) (from UniProt P11362 22-376) (receptor)
